{"source": "patent US20230270706A1", "about": "“TRANS-CROCETIN COMPOSITIONS AND TREATMENT REGIMENS” (priority 2020, published 2023)", "origin": "cited, not measured here", "conditions": "standard care with dexamethasone; similar patient population; 57% without; cited from earlier work", "note": "At least one compound was matched to its structure with a doubt left.", "data": [{"smiles": "C[C@@H]1C[C@H]2[C@@H]3CCC4=CC(=O)C=C[C@]4(C)[C@@]3(F)[C@@H](O)C[C@]2(C)[C@@]1(O)C(=O)CO", "note": "[dexamethasone]", "values": [{"measurement": "survival rate", "result": 69, "unit": "%"}]}]}
